Reference: article PMC5681548
These are yes or no findings as the source states them, for the method shown. Binding seen in cells or lysates may run through a third protein. Some results given as binding are weak or reduced against the parent protein; the word gives no strength. Blank lines part the entries; values can stand above or below the binder they belong to.

Tests used:
[1] = target: T1, KH-Type Splicing Regulatory Protein (KSRP) (human (endogenous in THP-1 and 293T)) (UniProt Q92945); assay: proximity ligation; in situ PLA in fixed, permeabilised 293T cells; anti-KSRP paired with rabbit anti-Drosha or rabbit anti-DGCR8; anti-KSRP with normal rabbit IgG as negative control; dots per cell counted in at least 100 cells
T1 sequence: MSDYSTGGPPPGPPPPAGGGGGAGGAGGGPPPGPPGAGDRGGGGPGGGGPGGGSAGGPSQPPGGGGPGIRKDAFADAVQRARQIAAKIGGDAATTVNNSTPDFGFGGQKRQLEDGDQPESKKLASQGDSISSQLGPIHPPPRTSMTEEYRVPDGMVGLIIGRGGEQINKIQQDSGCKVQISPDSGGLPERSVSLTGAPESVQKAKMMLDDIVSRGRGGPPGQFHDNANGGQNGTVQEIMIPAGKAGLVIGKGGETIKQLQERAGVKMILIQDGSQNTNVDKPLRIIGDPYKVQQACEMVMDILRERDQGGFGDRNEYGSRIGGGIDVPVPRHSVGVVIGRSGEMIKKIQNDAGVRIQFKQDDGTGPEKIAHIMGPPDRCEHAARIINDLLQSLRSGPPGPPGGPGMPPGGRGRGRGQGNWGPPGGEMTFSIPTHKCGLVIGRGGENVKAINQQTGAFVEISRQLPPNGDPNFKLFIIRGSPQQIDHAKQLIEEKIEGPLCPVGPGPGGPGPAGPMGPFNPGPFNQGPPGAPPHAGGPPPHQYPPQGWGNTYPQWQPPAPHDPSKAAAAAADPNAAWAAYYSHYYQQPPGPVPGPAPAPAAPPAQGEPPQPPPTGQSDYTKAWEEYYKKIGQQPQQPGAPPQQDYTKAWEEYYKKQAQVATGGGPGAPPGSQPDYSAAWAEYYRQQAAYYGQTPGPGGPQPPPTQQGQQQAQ

[2] = target: T1, KH-Type Splicing Regulatory Protein (KSRP) (human (endogenous in THP-1 and 293T)); assay: co-IP; endogenous proteins of THP-1 cells; KSRP immunoprecipitates incubated with or without RNAse A (0.1 mg/mL) at 37 °C for 20 min; blots for Drosha, DGCR8 and KSRP

binding [1]: binds
binding [2]: binds
B1: Drosha (enzyme, UniProt Q9NRR4 1-1374)
chain: MMQGNTCHRMSFHPGRGCPRGRGGHGARPSAPSFRPQNLRLLHPQQPPVQYQYEPPSAPSTTFSNSPAPNFLPPRPDFVPFPPPMPPSAQGPLPPCPIRPPFPNHQMRHPFPVPPCFPPMPPPMPCPNNPPVPGAPPGQGTFPFMMPPPSMPHPPPPPVMPQQVNYQYPPGYSHHNFPPPSFNSFQNNPSSFLPSANNSSSPHFRHLPPYPLPKAPSERRSPERLKHYDDHRHRDHSHGRGERHRSLDRRERGRSPDRRRQDSRYRSDYDRGRTPSRHRSYERSRERERERHRHRDNRRSPSLERSYKKEYKRSGRSYGLSVVPEPAGCTPELPGEIIKNTDSWAPPLEIVNHRSPSREKKRARWEEEKDRWSDNQSSGKDKNYTSIKEKEPEETMPDKNEEEEEELLKPVWIRCTHSENYYSSDPMDQVGDSTVVGTSRLRDLYDKFEEELGSRQEKAKAARPPWEPPKTKLDEDLESSSESECESDEDSTCSSSSDSEVFDVIAEIKRKKAHPDRLHDELWYNDPGQMNDGPLCKCSAKARRTGIRHSIYPGEEAIKPCRPMTNNAGRLFHYRITVSPPTNFLTDRPTVIEYDDHEYIFEGFSMFAHAPLTNIPLCKVIRFNIDYTIHFIEEMMPENFCVKGLELFSLFLFRDILELYDWNLKGPLFEDSPPCCPRFHFMPRFVRFLPDGGKEVLSMHQILLYLLRCSKALVPEEEIANMLQWEELEWQKYAEECKGMIVTNPGTKPSSVRIDQLDREQFNPDVITFPIIVHFGIRPAQLSYAGDPQYQKLWKSYVKLRHLLANSPKVKQTDKQKLAQREEALQKIRQKNTMRREVTVELSSQGFWKTGIRSDVCQHAMMLPVLTHHIRYHQCLMHLDKLIGYTFQDRCLLQLAMTHPSHHLNFGMNPDHARNSLSNCGIRQPKYGDRKVHHMHMRKKGINTLINIMSRLGQDDPTPSRINHNERLEFLGDAVVEFLTSVHLYYLFPSLEEGGLATYRTAIVQNQHLAMLAKKLELDRFMLYAHGPDLCRESDLRHAMANCFEALIGAVYLEGSLEEAKQLFGRLLFNDPDLREVWLNYPLHPLQLQEPNTDRQLIETSPVLQKLTEFEEAIGVIFTHVRLLARAFTLRTVGFNHLTLGHNQRMEFLGDSIMQLVATEYLFIHFPDHHEGHLTLLRSSLVNNRTQAKVAEELGMQEYAITNDKTKRPVALRTKTLADLLESFIAALYIDKDLEYVHTFMNVCFFPRLKEFILNQDWNDPKSQLQQCCLTLRTEGKEPDIPLYKTLQTVGPSHARTYTVAVYFKGERIGCGKGPSIQQAEMGAAMDALEKYNFPQMAHQKRFIERKYRQELKEMRWEREHQEREPDETEDIKK

binding [1]: binds
binding [2]: binds
B2: DGCR8 (protein, UniProt Q8WYQ5 1-773)
chain: METDESPSPLPCGPAGEAVMESRARPFQALPREQSPPPPLQTSSGAEVMDVGSGGDGQSELPAEDPFNFYGASLLSKGSFSKGRLLIDPNCSGHSPRTARHAPAVRKFSPDLKLLKDVKISVSFTESCRSKDRKVLYTGAERDVRAECGLLLSPVSGDVHACPFGGSVGDGVGIGGESADKKDEENELDQEKRVEYAVLDELEDFTDNLELDEEGAGGFTAKAIVQRDRVDEEALNFPYEDDFDNDVDALLEEGLCAPKKRRTEEKYGGDSDHPSDGETSVQPMMTKIKTVLKSRGRPPTEPLPDGWIMTFHNSGVPVYLHRESRVVTWSRPYFLGTGSIRKHDPPLSSIPCLHYKKMKDNEEREQSSDLTPSGDVSPVKPLSRSAELEFPLDEPDSMGADPGPPDEKDPLGAEAAPGALGQVKAKVEVCKDESVDLEEFRSYLEKRFDFEQVTVKKFRTWAERRQFNREMKRKQAESERPILPANQKLITLSVQDAPTKKEFVINPNGKSEVCILHEYMQRVLKVRPVYNFFECENPSEPFGASVTIDGVTYGSGTASSKKLAKNKAARATLEILIPDFVKQTSEEKPKDSEELEYFNHISIEDSRVYELTSKAGLLSPYQILHECLKRNHGMGDTSIKFEVVPGKNQKSEYVMACGKHTVRGWCKNKRVGKQLASQKILQLLHPHVKNWGSLLRMYGRESSKMVKQETSDKSVIELQQYAKKNKPNLHILSKLQEEMKRLAEEREETRKKPKMSIVASAQPGGEPLCTVDV
